PubChem BioAssay AID488837 (National Center for Advancing Translational Sciences (NCATS), 2010)
The campaign covered roughly 330,000 compounds. About 20 (0.006%) were called active. Inconclusive means that the source gave no clear call. Such entries were picked first, then a sample of the others. The call rests on the fitted dose curve; in most records, active means well fitted inhibition curve with a large enough effect; inconclusive means small, poorly fitted or top-dose-only effect, or effect the other way; inactive means flat fitted curve, though single readings scatter. Potencies of inconclusive entries are doubtful fits and often do not repeat.

By UniProt entry, the sequences of proteins in these tests, tags left out. Where a name states a change or a piece, a line headed by the entry shows the natural chain unless it says otherwise.
UniProt O00167: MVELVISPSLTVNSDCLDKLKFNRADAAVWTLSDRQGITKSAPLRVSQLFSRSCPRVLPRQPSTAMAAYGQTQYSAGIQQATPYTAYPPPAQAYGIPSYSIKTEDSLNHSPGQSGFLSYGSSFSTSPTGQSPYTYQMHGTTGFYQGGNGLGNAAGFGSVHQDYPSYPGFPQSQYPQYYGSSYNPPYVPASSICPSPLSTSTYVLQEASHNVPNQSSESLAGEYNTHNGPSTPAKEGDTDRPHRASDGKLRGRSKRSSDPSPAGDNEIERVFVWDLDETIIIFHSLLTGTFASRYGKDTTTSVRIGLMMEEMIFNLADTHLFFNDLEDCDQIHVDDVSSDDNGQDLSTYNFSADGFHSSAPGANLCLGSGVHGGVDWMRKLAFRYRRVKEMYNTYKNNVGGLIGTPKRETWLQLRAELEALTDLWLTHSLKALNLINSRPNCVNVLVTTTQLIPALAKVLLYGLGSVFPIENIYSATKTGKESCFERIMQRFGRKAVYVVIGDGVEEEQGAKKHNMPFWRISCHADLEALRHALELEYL

molecular target: Protein phosphatase EYA2 (Homo sapiens) (UniProt O00167); assay: qHTS Assay for Inhibitors of the Phosphatase Activity of Eya2; details: recombinant Eya2, OMFP fluorescence dephosphorylation (OMFP is methylfluorescein phosphate); activity, negative = inhibition: at 76.9 µM (top of the series) unless noted
Procedure, shortened: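 Eya2 protein (added as 0.2 uM solution) was preincubated with compound for 10 min at ambient temperature in 50 mM HEPES pH 7.5, 50 mM NaCl, 5 uM MgCl2, 0.05% BSA, 1 mM DTT. OMFP (added at 50 uM) then reacted 10 min; fluorescence read at 485/525 nm.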
On the % scale 0 is the no-effect control and ±100 the full control effect; potency means the concentration at half of the fitted maximal effect.

Q: With CCn1cnc2cc(NCc3ccc(Br)cc3)ccc21 as the compound, how does the Potency read?
A: inconclusive: 141 µM [inhibitor, partial curve, poor fit]

Q: For Cc1ccc2sc3ccc(NC(=O)c4ccccc4Cl)cc3c(=O)c2c1, which Potency is on record?
A: inconclusive: 20 µM [inhibitor, single point]

Q: Cc1ccc(-c2cn3nc(-c4ccccc4)c(-c4ccccc4)nc3n2)cc1 was tested. Which activity, negative = inhibition did it give?
A: inconclusive: 51.8% [activator]

Q: Nc1ccc2nc(-c3cccc(-c4nc5ccc(N)cc5[nH]4)n3)[nH]c2c1 was tested. Which Potency did it give?
A: inconclusive: 22.4 µM [inhibitor, single point]

Q: O/N=C1\CCCc2ccc3ccccc3c21 was tested. Which Potency did it give?
A: inconclusive: 89.1 µM [inhibitor, single point]

Q: With CN1C(=O)c2cccc3c(N(C)C)ccc(c23)C1=O as the compound, how does the Potency read?
A: inconclusive: 50.1 µM [activator, partial curve]

Q: With Cc1ccc(C)c(CN2CCC(CNC(=O)Nc3ccc(Br)cc3F)CC2)c1 as the compound, how does the “activity, negative = inhibition” value read?
A: inactive: -11.6%

Q: With O=C(CSc1nnc(CCCN2C(=O)c3cccc4cccc(c34)C2=O)n1-c1ccccc1)N1CCCCC1 as the compound, how does the “activity, negative = inhibition” value read?
A: inactive: -9.49%

Q: N=C(N)SCc1ncccc1O was tested. Which Potency did it give?
A: inconclusive: 14.1 µM [inhibitor, partial curve, poor fit]

Q: How did the Potency turn out when Nc1ccc(C(=O)Oc2ccc([N+](=O)[O-])cc2)c(O)c1 was run?
A: inconclusive: 100 µM [inhibitor, single point]

Q: O=C(Nc1cccc(F)c1)Nc1ccc2c(c1)CCC2 was tested. Which “activity, negative = inhibition” value did it give?
A: inactive: -2.25%

Q: O=C(Nc1ccc(F)cc1)N1CCC(c2nc3c(nnn3Cc3cccc(Cl)c3)c(=O)[nH]2)CC1 was tested. Which “activity, negative = inhibition” value did it give?
A: inactive: 26.8%

Q: Which Potency does the source give for Cc1ccc(S(=O)(=O)Oc2ccccc2/C=N/N=C(N)N)cc1 here?
A: inconclusive: 1260 µM [inhibitor, partial curve]

Q: CC1C/C(=C/c2ccco2)C(=O)/C(=C/c2ccco2)C1 (stereo not given) was tested. Which “activity, negative = inhibition” value did it give?
A: inactive: -4.12%

Q: CC(C)CC[n+]1ccccc1/C=C/c1ccc(N(C)C)cc1 was tested. Which Potency did it give?
A: inconclusive: 39.8 µM [activator, partial curve]

Q: With CCC(C)N=Cc1c(Nc2ccccc2)nc2c(C)cccn2c1=O (stereo not given) as the compound, how does the Potency read?
A: inconclusive: 15.8 µM [inhibitor, single point]

Q: For C=C(C)COc1ccc(-c2[nH]ncc2-c2ccc(OC)cc2)c(O)c1, which Potency is on record?
A: inconclusive: 126 µM [inhibitor, single point]

Q: How did the Potency turn out when CSc1ccc(S(=O)(=O)N2CCC(C(=O)N3CCOCC3)CC2)cc1 was run?
A: inconclusive: 25.1 µM [inhibitor, single point]

Q: For CNC(=O)/C(C#N)=C/c1cccc(Oc2ccccc2)c1, which Potency is on record?
A: inconclusive: 100 µM [inhibitor, single point]

Q: COC(=O)c1cc2c(ccn2-c2ccc(F)cc2)n1Cc1ccc(OC)cc1 was tested. Which “activity, negative = inhibition” value did it give?
A: inactive: -0.856%

Q: Which Potency does the source give for CC(C)CC1NC(=O)N(CC(=O)N2CCCc3ccccc32)C1=O (stereo not given) here?
A: inconclusive: 22.4 µM [inhibitor, single point]

Q: Which Potency does the source give for CC(C)(Cc1nc2ccccc2[nH]1)C(=O)O here?
A: inconclusive: 79.4 µM [inhibitor, single point]

Q: How did the Potency turn out when Cc1ccc(Oc2nc3ccccn3c(=O)c2/C=C(\C#N)C(=O)NC2CCS(=O)(=O)C2)cc1 (stereo not given) was run?
A: inconclusive: 89.1 µM [inhibitor, single point]

Q: For N#CC(C#N)=C(N)/C(C#N)=C/c1cc(O)c(O)c(O)c1, which “activity, negative = inhibition” value is on record?
A: inactive: 16.3%

Q: How did the Potency turn out when COc1ccccc1C1c2[nH]c3ccccc3c2CCN1Cc1cnc(C)s1 (stereo not given) was run?
A: inconclusive: 25.1 µM [inhibitor, single point]

Q: How did the Potency turn out when CC(=O)N/N=C(/c1ccccc1)C(O)c1ccccc1 (stereo not given) was run?
A: inconclusive: 20 µM [inhibitor, single point]

Q: How did the “activity, negative = inhibition” value turn out when COCCNC(=O)CCc1c(C)nc2c(-c3ccc(F)cc3)c(C)nn2c1C was run?
A: inactive: 16.7%

Q: For Cn1c(=O)c2c(nc(Oc3ccc4c(c3)OCO4)n2Cc2ccc(Br)cc2)n(C)c1=O, which Potency is on record?
A: inconclusive: 89.1 µM [inhibitor, single point]

Q: With Brc1ccc(-c2cn3c(n2)CCc2ccc4cccnc4c2-3)cc1 as the compound, how does the “activity, negative = inhibition” value read?
A: inactive: 15%

Q: With CN1CCCN(S(=O)(=O)c2ccc(O)c(C(=O)O)c2)CC1 as the compound, how does the Potency read?
A: inconclusive: 100 µM [inhibitor, single point]

Q: Which Potency does the source give for Nc1cccnc1Oc1ccc(F)cc1F here?
A: inconclusive: 447 µM [inhibitor, single point]

Q: Nc1c2c(nc3cccc(Cl)c13)N(c1ccccc1)CC2 was tested. Which Potency did it give?
A: inconclusive: 22.4 µM [inhibitor, single point]

Q: With Cc1ccc(CNC(=O)C(c2ccccc2)c2ccccc2)cc1 as the compound, how does the “activity, negative = inhibition” value read?
A: inactive: -13%

Q: How did the “activity, negative = inhibition” value turn out when c1ccc(-c2nc(NCc3cccnc3)c3ccccc3n2)cc1 was run?
A: inactive: 2.41%

Q: Which Potency does the source give for CC(=O)Nc1ccc(S(=O)(=O)N2CCN(C(=O)N3CCCC3)CC2)cc1 here?
A: inconclusive: 20 µM [inhibitor, single point]

Q: With COc1cc(/C=N/Nc2nc(=O)[nH]nc2C)cc([N+](=O)[O-])c1O as the compound, how does the Potency read?
A: inconclusive: 89.1 µM [inhibitor, single point]

Q: For Cc1ccccc1/C=C/C12NC(=O)CN1c1ccccc1C2(C)C (stereo not given), which Potency is on record?
A: inconclusive: 100 µM [inhibitor, single point]

Q: For COc1ccc2c3c(cccc13)C(=O)CC2, which Potency is on record?
A: inconclusive: 39.8 µM [activator, partial curve]

Q: CCCCNC(=O)Nc1ccc2c(c1)N(C)C(=O)c1ccccc1S2 was tested. Which Potency did it give?
A: inconclusive: 141 µM [inhibitor, partial curve]

Q: Which Potency does the source give for O=C(CCN1C(=O)c2ccccc2C1=O)Nc1ccccc1C(F)(F)F here?
A: inconclusive: 112 µM [inhibitor, single point]

Q: For CC(C)C(=O)Nc1cccc(NC(=O)c2cccc([N+](=O)[O-])c2)c1, which Potency is on record?
A: inconclusive: 224 µM [inhibitor, partial curve, poor fit]

Q: For CSc1nc(N)c2ncn([C@@H]3O[C@H](COP(=O)(O)OP(=O)(O)O)C(O)[C@H]3O)c2n1 (stereo not given in full), which “activity, negative = inhibition” value is on record?
A: inactive: 2.17%

Q: With CC1CCN(CC(O)COc2ccc(F)cc2)CC1 (stereo not given) as the compound, how does the “activity, negative = inhibition” value read?
A: inactive: -25.3%

Q: For NC(=O)Cc1ccc(C(=O)c2ccccc2)s1, which Potency is on record?
A: inconclusive: 200 µM [inhibitor, partial curve, poor fit]

Q: With Cc1c(O)c2c3c(cccc3c1O)C(=O)N(c1ccccc1)C2=O as the compound, how does the Potency read?
A: inconclusive: 79.4 µM [activator, partial curve]
